In one test the target is T1, EHF (UniProt Q9NZC4).
T1 sequence: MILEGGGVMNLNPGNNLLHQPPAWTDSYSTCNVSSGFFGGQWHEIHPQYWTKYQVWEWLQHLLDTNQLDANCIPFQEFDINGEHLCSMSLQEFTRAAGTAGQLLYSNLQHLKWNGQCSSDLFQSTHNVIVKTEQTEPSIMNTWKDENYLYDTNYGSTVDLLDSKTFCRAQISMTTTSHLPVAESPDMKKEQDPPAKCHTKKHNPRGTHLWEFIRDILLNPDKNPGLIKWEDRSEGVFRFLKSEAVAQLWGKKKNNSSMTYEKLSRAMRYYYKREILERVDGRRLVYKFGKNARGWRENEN
Nature of the test: DAPPL (digital affinity profiling via proximity ligation, sequencing). The note with it: 10 mM Tris-HCl pH 7.5, 50 mM NaCl, 1 mM DTT, 4% glycerol, room temperature, 30 min; GST-TFs on glutathione beads, 16-mer random dsDNA library, 0.1% …; high values mean tight binding; double strand, one strand shown; scale: fold enrichment (6-mer frequency, TF over GST control).

Sequences of proteins named here, by UniProt entry; tags and fusion partners are left off. A change or cut given only in a name is not applied to a line headed by its entry.
UniProt Q01892: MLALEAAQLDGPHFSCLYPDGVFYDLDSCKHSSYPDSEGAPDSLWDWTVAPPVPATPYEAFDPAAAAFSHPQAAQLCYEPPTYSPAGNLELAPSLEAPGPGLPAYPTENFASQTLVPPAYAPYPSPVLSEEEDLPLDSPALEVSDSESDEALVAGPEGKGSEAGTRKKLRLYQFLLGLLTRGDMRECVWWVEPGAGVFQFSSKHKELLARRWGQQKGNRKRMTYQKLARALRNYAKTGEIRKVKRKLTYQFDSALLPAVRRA

For the next test, the target named is SPIB (UniProt Q01892). The test is described as above. The note with it: 10 mM Tris-HCl pH 7.5, 50 mM NaCl, 1 mM DTT, 4% glycerol, room temperature, 30 min; GST-TFs on glutathione beads, 16-mer random dsDNA library, 0.1% …; high values mean tight binding; double strand, one strand shown; scale: fold enrichment (6-mer frequency, TF over GST control).

Only a part is listed here, and it is no random draw. At the low end of the ranking the order means little.

Turning to GTTTCG, the binding signal in the test with EHF is 1.33.
With ATTGCC, the binding signal with EHF is 1.24.
The same measure, in the same setting: next, TCCCTC: 1.48.
The same measure, in the same setting: next, ATGACA: 1.32.
Take TGCAAC: in the test with EHF, the binding signal came out at 1.36.
Sequence CCTACT gave a binding signal with EHF of 1.69.
Still for that read-out and setting: next, TCCGGC: 2.18; TGAACC: 1.16; CAATTG: 1.27.
CTGAAT came in with a binding signal with EHF of 1.31.
The sequence TTTACG gave a binding signal with EHF of 1.3.
Turning to CTACTT, the binding signal with EHF is 1.92.
As for TTGATT, the binding signal with EHF stood at 1.26.
The same measure, in the same setting: next, GCTTGC: 1.28; ATATCG: 1.13.
With AACCTT, the binding signal in the test with EHF came to 1.33.
In turn, TGGTTT displayed a binding signal with EHF of 1.48.
The same measure, in the same setting: next, TCACTT: 1.67; AGTATC: 1.19; CTGCTA: 1.5.
On the same count and under the same terms, the figure for ACTTAC is 1.28; for CCTATC it is 1.18.
On to CGAATA, for which, in the test with SPIB, the binding signal is 1.11.
On to GCATTC, for which the figures for the binding signal with EHF and with SPIB were 1.07 and 1.12, respectively.
Take CCTACA: the binding signal with SPIB came to 1.17.
For the sequence GTTTAC, the values for the binding signal with EHF and with SPIB were 1.14 and 1.09, respectively.
Consider GCCTCA, for which the binding signal with EHF amounted to 1.17; with SPIB, 1.25.
Take TGACTC: the binding signal with EHF is 1.27; with SPIB, 1.42.
Regarding CTCCTA, the values for the binding signal in the test with EHF and in the test with SPIB were 1.25 and 1.4, respectively.
On to TAAACG, for which the values for the binding signal with EHF and with SPIB were 1.17 and 1.19, respectively.
The corresponding values for ACAGAT are 1.03 and 0.969.
The like results for CTAGGT were, in that order, 1.09 and 1.13.
CTGCCT: the binding signal was 1.33 with EHF and 1.21 in the test with SPIB.
With TATGGA, in the test with SPIB, the binding signal turned out to be 1.17.
On to TCTTAG, for which the binding signal with EHF is 1.21; with SPIB, 1.09.
In the test with SPIB, TGACTT gave a binding signal of 1.52.
For the sequence AAGGTA, the binding signal with SPIB came out at 1.05.
In the case of AACACA, the binding signal with EHF was determined as 1.38; with SPIB, 1.35.
Take TTGACA: the binding signal with EHF was 1.29; with SPIB it was 1.28.
CCCGCA had a binding signal in the test with SPIB of 1.29.
GATTCC: the binding signal is 1.15 with EHF and 1.16 in the test with SPIB.
Turning to CGAGCT, the binding signal worked out at 1.13 in the test with EHF and 1.04 with SPIB.
On to GGCCTA, for which the binding signal with EHF is 1.23; with SPIB it was 1.04.
On to CTCTTC, for which the binding signal with SPIB is 1.84.
As for GATTTC, the binding signal with SPIB worked out at 1.72.
For GGTCCT, the results for the binding signal with EHF and in the test with SPIB were 0.974 and 0.971, respectively.
CTTGTC: the binding signal amounted to 1.19 with EHF and 1.23 with SPIB.
As to CGATCC, the binding signal in the test with EHF and with SPIB was 1.22 throughout.
On to ACGATC, for which the values for the binding signal with EHF and in the test with SPIB were 0.956 and 1.08, respectively.
Turning to ACTCCC, the binding signal with EHF was determined as 1.38; with SPIB it was 1.42.
In the test with SPIB, ATTACG had a binding signal of 1.18.
As for GTTACG, the binding signal with EHF is 1.03; with SPIB, 0.958.
Sequence CCTGAT came in with a binding signal with SPIB of 1.6.

(Values after article PMC7862700.)
